In the supplement of paper PMC12823440, “Inhibitors supercharge kinase turnover through native proteolytic circuits” (Nature, 2025):
The other results are listed elsewhere or left out. Hit calls seldom repeat between salt and free forms of one compound.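 Kinases, fused to nanoluciferase, were expressed in K562 cells; luminescence was measured every 4 h from 2 to 18 h as percent of control (DMSO = 100%, positive control = 0%). A time point is decreased if signal falls significantly (2 sigma). Hits were called by the authors by a rule that is not shown; the count of time points alone does not decide it.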

Amino acid sequences for entries named in this document (tags omitted). A change or cut given only in a name is not applied to a line headed by its entry.
UniProt P07947, whole entry, looked up: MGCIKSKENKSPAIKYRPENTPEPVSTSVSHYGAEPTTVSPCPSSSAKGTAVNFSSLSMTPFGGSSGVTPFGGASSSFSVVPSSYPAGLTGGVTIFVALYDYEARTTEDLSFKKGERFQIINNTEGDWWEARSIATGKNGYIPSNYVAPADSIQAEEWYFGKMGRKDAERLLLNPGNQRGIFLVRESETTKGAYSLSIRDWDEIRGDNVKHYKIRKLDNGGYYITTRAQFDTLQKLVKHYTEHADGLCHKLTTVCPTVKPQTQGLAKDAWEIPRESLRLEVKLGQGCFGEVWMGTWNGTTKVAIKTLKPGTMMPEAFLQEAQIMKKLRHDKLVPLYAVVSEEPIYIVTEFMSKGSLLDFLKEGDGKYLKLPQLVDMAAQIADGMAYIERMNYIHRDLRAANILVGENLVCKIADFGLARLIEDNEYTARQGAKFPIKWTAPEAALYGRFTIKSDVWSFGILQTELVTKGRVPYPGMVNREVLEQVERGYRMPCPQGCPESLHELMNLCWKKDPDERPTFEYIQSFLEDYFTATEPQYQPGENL
UniProt P43403: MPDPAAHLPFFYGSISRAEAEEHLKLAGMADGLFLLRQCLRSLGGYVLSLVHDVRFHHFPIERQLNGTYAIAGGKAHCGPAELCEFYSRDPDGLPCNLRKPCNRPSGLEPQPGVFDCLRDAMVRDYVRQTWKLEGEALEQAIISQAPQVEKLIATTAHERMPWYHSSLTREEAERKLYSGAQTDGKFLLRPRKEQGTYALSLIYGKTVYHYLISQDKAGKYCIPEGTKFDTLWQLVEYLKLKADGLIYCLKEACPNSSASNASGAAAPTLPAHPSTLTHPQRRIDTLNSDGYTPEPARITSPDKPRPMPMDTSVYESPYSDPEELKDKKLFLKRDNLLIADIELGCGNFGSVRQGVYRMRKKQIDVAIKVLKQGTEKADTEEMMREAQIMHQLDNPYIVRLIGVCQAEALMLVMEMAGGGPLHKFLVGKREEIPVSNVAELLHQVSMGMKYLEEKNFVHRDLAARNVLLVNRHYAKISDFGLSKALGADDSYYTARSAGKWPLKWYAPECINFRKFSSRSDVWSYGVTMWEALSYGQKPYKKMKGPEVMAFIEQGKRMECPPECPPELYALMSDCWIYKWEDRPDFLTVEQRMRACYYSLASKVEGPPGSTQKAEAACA
UniProt P11802: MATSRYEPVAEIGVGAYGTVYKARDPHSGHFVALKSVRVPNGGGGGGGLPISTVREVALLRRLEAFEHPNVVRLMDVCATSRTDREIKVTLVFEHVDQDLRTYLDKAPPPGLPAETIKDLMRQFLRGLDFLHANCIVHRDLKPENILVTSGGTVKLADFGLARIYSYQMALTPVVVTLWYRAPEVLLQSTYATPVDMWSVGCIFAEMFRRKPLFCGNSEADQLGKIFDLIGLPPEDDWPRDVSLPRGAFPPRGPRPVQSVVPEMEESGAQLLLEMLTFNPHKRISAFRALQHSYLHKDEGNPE
UniProt P50613: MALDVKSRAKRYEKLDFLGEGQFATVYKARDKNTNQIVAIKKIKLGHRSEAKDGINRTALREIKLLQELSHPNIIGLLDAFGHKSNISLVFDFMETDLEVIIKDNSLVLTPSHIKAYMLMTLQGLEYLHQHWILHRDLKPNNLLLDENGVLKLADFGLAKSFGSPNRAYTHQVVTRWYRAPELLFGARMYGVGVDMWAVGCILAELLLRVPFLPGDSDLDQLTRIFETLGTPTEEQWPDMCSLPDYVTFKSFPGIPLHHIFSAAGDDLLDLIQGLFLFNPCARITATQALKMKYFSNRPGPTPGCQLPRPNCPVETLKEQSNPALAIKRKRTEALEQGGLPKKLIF
UniProt P50750, whole entry: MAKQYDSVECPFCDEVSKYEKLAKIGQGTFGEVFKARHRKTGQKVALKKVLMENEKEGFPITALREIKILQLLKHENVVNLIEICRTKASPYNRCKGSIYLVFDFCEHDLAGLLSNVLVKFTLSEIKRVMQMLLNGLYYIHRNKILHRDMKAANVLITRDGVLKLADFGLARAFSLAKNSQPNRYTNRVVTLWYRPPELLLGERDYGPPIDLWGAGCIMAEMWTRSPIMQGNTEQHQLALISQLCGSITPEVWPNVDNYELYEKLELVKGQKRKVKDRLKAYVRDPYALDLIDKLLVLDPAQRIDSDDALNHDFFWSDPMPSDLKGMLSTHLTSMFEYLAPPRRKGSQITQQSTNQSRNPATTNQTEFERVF

Tests used:
Conditions in all cases: K562; 2-18 h
[1] = target: YES1 (UniProt P07947); experiment: number of time points (of 5) at which kinase-Nluc abundance scored as decreased, DMSO-normalised (count); higher = more persistent destabilization
[2] = target: ZAK (UniProt Q9NYL2); experiment: as above
[3] = target: ZAP70 (UniProt P43403); experiment: as above
[4] = target: CDK4 (UniProt P11802); experiment: number of time points (of 4; 2 h point missing) at which kinase-Nluc abundance scored as decreased, DMSO-normalised (count); higher = more persistent destabilization
[5] = target: CDK7 (UniProt P50613); experiment: as above
[6] = target: CDK9 (UniProt P50750); experiment: as above

Measured: number of time points

O=C(CNc1cccc(Cl)c1)NC1CCCN(c2ncnc3[nH]ccc23)C1 (configuration not stated) (10 µM)
0: all assays above

COc1cc(/C=C/C(=O)N2CCC=CC2=O)cc(OC)c1OC [Piperlongumine] (2.5 µM)
0: all assays above

C[C@H](Nc1ncnc2nc[nH]c12)c1cc2cccc(Cl)c2c(=O)n1-c1ccccc1 [Duvelisib] (10 µM)
0: all assays above

COc1ccc2cc3[n+](cc2c1OC)CCc1cc(O)c(O)cc1-3 [Demethyleneberberine] (10 µM)
0: all assays above

c1cc(NC2CCNCC2)nc(-c2cnc3ccccn23)c1 [IRAK inhibitor 1] (10 µM)
0: all assays above

C[C@H](Nc1ncnc2[nH]cnc12)c1cc2ccc(F)cc2nc1-c1ccccn1 (10 µM)
0: all assays above

COc1cc(N2CCOCC2)ccc1NC(=O)c1csc(-c2cccnc2)n1 [IRAK inhibitor 6] (10 µM)
0: all assays above

Six neighbouring records out of the list so far, for reference:
COc1cc(/C=C/C(=O)N2CCC=CC2=O)cc(OC)c1OC [Piperlongumine] (2.5 µM)
0: all assays above

C[C@H](Nc1ncnc2nc[nH]c12)c1cc2cccc(Cl)c2c(=O)n1-c1ccccc1 [Duvelisib] (10 µM)
0: all assays above

COc1ccc2cc3[n+](cc2c1OC)CCc1cc(O)c(O)cc1-3 [Demethyleneberberine] (10 µM)
0: all assays above

c1cc(NC2CCNCC2)nc(-c2cnc3ccccn23)c1 [IRAK inhibitor 1] (10 µM)
0: all assays above

C[C@H](Nc1ncnc2[nH]cnc12)c1cc2ccc(F)cc2nc1-c1ccccn1 (10 µM)
0: all assays above

COc1cc(N2CCOCC2)ccc1NC(=O)c1csc(-c2cccnc2)n1 [IRAK inhibitor 6] (10 µM)
0: all assays above

Remaining list, next part.

O=C1O[C@H]([C@@H](O)CO)C(O)=C1OP(=O)(O)O [2-Phospho-L-ascorbic acid (trisodium)] (10 µM)
0: all assays above

Nc1c(C(=O)NCc2ccc(C(=O)NCCCC3CCCCC3)cc2)cnn1-c1ccccc1 (2.5 µM)
0: all assays above

NC(=S)n1[nH]c(-c2ccc([N+](=O)[O-])cc2)c(N=Nc2cccc(Cl)c2)c1=O (2.5 µM)
0: all assays above

NC(=O)c1cnc2[nH]ccc2c1N[C@@H]1[C@@H]2CC3C[C@H]1C[C@@](O)(C3)C2 [Peficitinib] (10 µM)
1: [1] | [5]
0: all other assays above

Oc1ccc(/C=C/c2cc(O)cc(F)c2)cc1 [Resveratrol analog 1] (10 µM)
0: all assays above

Cn1ncc2cc(-c3cnc(N)c(Cl)c3N3CCC4(CCNC4=O)CC3)ccc21 (10 µM)
1: [5]
0: all other assays above

C=CC(=O)N1C(=O)CC(c2ccc(F)cc2)Sc2ccccc21 (stereo not drawn) [GSK-3β inhibitor 3] (10 µM)
2: [5]
1: [1]
0: all other assays above

CNc1cc(Nc2cccn(-c3ccccn3)c2=O)nn2c(C(=O)N[C@@H]3C[C@@H]3F)cnc12 (2.5 µM)
0: all assays above

Nc1nc(N)c2nc(-c3cccc(O)c3)cnc2n1 (10 µM)
0: all assays above

O=C1/C(=C\c2ccc(Cl)cc2)C=C(c2ccccc2)N1c1ccc(O)cc1 (2.5 µM)
0: all assays above

CCCCCCCC/C=C\CCCCCCCCCCCC(=O)O [Erucic acid] (10 µM)
0: all assays above

CCc1ccc(OCC(=O)Nc2ccc(F)c([N+](=O)[O-])c2)cc1 (10 µM)
0: all assays above

Cc1ccc(Oc2nc3cc(-c4ccc(-c5ccccc5)cc4)c(Cl)cc3[nH]2)cc1C(=O)O (10 µM)
0: all assays above

C=CC(=O)Nc1cc(-n2c(=O)ccc3cnc4ccc(-c5ccc(NS(C)(=O)=O)cc5)cc4c32)ccc1C (10 µM)
0: all assays above

COc1c(Nc2cc(C)[nH]n2)nc(Sc2ccc(S(=O)(=O)Cc3cccc([N+](=O)[O-])c3F)cc2F)nc1N1CCCCC1 [Centrinone-B] (2.5 µM)
3: [6]
2: [4]
0: all other assays above
